Assay results taken from US8487006B2, “Method of enhancing TGF-β signalling” (Auxagen, Inc., priority 2008, dated 2013).

Tested on: wild-type mice
Assay: Wild-type mice treated with dynasore (organ pathology, coronary artery histology, TβR-II staining, plasma cholesterol)
Assay type: in vivo
Details: wild-type mice treated with dynasore 1 mg/kg every two days for 8 weeks (120±10 with vehicle only)
Protocol: Wild-type and ApoE-null mice were treated with vehicle only (a, c) or 1 mg/kg dynasore (b, d) every two days for 8 weeks. The coronary arteries were removed from the animals and subjected to histological analysis by H & E staining (A) and indirect immunofluorescent staining for TβR-II(B). The asterisk (*) indicates the location of the lumen in coronary arteries. The arrow indicates the immunofluorescent staining of TβR-II in the aortic endothelium.
We hypothesize that TGF-β enhancers such as inhibitors of clathrin-dependent endocytosis may ameliorate atherosclerosis caused by cholesterol-induced suppression of TGF-β responsiveness in vascular cells^3,12. To test our hypothesis, we treated hypercholesterolemic ApoE-null mice with dynasore (1 mg/kg body weight) via intraperitoneal administration every two days for 8 weeks. We chose dynasore for two reasons. […] At 50 μM, it enhances TGF-β-stimulated expression of PAI-1 in these cell types by ˜4-5 fold, 2) Dynasore is the only inhibitor tested which alone is capable of stimulating PAI-1 expression. […] The plasma levels of cholesterol in wild-type mice treated with either vehicle only or dynasore were 120±10 and 125±20 mg/dl, respectively.
However, no TβR-II staining was found in the aortic endothelium and smooth muscle of coronary arteries in ApoE-null mice treated with vehicle only (FIG. 4Bc).

O=C(N/N=C/c1ccc(O)c(O)c1)c1cc2ccccc2cc1O [dynasore]
plasma levels of cholesterol: 125 ± 20 mg/dL
